Values quoted from earlier work in patent US20170364630A1, “IDENTIFICATION OF CELLULAR ANTIMICROBIAL DRUG TABLETS THROUGH INTERACTOME ANALYSIS” (Vanderbilt University, priority 2014, published 2017).

Test system: hepatitis C virus (HCV)
Conditions: cell-based quantitative high-throughput screening, He et al. 2015; read-out: EC50, anti-HCV activity

Structure (SMILES): Cc1ccccc1C(OCCN(C)C)c1ccccc1 (stereo not shown) [orphenadrine]
- EC50: 10.5 µM
